According to PubChem BioAssay (NCATS):
“And” between values parts separate entries of the source, which are not always exact repeats. Identical values can stand only once. Inconclusive results, whose numbers are uncertain, are shown with a selection of clear calls. For some of these results: Where the call is inconclusive, the potency comes from a doubtful curve fit. The source made the active and inactive calls. Calls follow the shape of the dose curve; as a rule, active = well fitted curve in the direction sought with a large enough effect; inconclusive = small, poorly fitted or top-dose-only effect, or another doubt; inactive = no such curve, though single readings can be large; an effect the other way counts as inactive or inconclusive.

What was measured:
[1] = qHTS of pediatric cancer cell lines to identify multiple opportunities for drug repurposing: Primary screen for Rh41 cells (AID 1347108); also: nearly all actives have a fitted effect of over 70% in size; also: potency is read from the fitted curve at half-maximal effect;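 as to activity change, negative = cytotoxic: luminescence drop marks cytotoxic hits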
In short: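 Phenotypic viability qHTS, 48 h compound exposure, CellTiter-Glo luminescence read-out; multi-concentration dosing so that potency and efficacy derive directly from the primary screen's curves.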

[2] = qHTS of pediatric cancer cell lines to identify multiple opportunities for drug repurposing: Confirmatory screen for A673 cells (AID 1347110);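 also: cells exposed to compound for 48 h before the viability read; nearly all actives have a fitted effect of over 65% in size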; also: potency is read from the fitted curve at half-maximal effect
In short: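 Concentration-response curves came straight from titrations: 11 points (0.78 nM to 46 µM) for MIPE and several concentrations (0.59 nM to 46 µM) for NPC in primary, 11 points in follow-up. Readout: ATP luminescence at 48 h.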

[3] = qHTS of pediatric cancer cell lines to identify multiple opportunities for drug repurposing: Confirmatory screen for SK-N-MC cells (AID 1347111);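 also: cells exposed to compound for 48 h before the readout; nearly all actives have a fitted effect of over 70% in size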; also: potency is read from the fitted curve at half-maximal effect
In short: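 Seed 500-1,000 cells/well; rest 5 h at 37 degrees C. Pin-transfer compounds, 11-point titration. Incubate 48 h. Add CellTiter-Glo, 15 min RT, read luminescence.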

[4] = qHTS of pediatric cancer cell lines to identify multiple opportunities for drug repurposing: Confirmatory screen for BT-37 cells (AID 1347117); also: nearly all actives have a fitted effect of over 55% in size; also: potency is read from the fitted curve at half-maximal effect
In short: (§1)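 Cells (500-1,000/well) rested 5 h, then received compounds for 48 h; metabolically active cells were measured by CellTiter-Glo luminescence. Final concentrations spanned up to 46 µM (MIPE, 11-point) or 0.59 nM-46 µM (NPC, 8-point) in primary screens, 11-point in follow-ups.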

[5] = qHTS of pediatric cancer cell lines to identify multiple opportunities for drug repurposing: Confirmatory screen for TC32 cells (AID 1347118); conditions: TC32 Ewing sarcoma cells viability qHTS; series mostly up to 45.9 µM;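 also: cells exposed to compound for 48 h before the read; nearly all actives have a fitted effect of over 65% in size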; also: potency is read from the fitted curve at half-maximal effect
In short: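 Luminescent ATP read-out (CellTiter-Glo) of metabolically active TC32 cells after 48 h exposure. Concentration-response curves came from 11-point (MIPE, 0.78 nM–46 µM) or 8-point (NPC, 0.59 nM–46 µM) primary titrations; follow-up used 11 points.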

[6] = qHTS of pediatric cancer cell lines to identify multiple opportunities for drug repurposing: Confirmatory screen for U-2 OS cells (AID 1347122); also: nearly all actives have a fitted effect of over 65% in size; also: potency is read from the fitted curve at half-maximal effect
In short: as §1

[7] = qHTS of pediatric cancer cell lines to identify multiple opportunities for drug repurposing: Confirmatory screen for RD cells (AID 1347124);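 also: cells exposed to compound for 48 h before viability readout; nearly all actives have a fitted effect of over 65% in size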; also: potency is read from the fitted curve at half-maximal effect
In short: as §1

[8] = qHTS of pediatric cancer cell lines to identify multiple opportunities for drug repurposing: Confirmatory screen for Rh18 cells (AID 1347125); conditions: Rh18 rhabdomyosarcoma cells, viability; activity change, negative = cytotoxic: at 45.9 µM (top of the series); also: nearly all actives have a fitted effect of over 55% in size; also: potency is read from the fitted curve at half-maximal effect
In short: as §1

[9] = qHTS of pediatric cancer cell lines to identify multiple opportunities for drug repurposing: Confirmatory screen for BT-12 cells (AID 1347112); also: nearly all actives have a fitted effect of over 55% in size; also: potency is read from the fitted curve at half-maximal effect
In short: as §1

[10] = qHTS of pediatric cancer cell lines to identify multiple opportunities for drug repurposing: Confirmatory screen for LAN-5 cells (AID 1347113); also: nearly all actives have a fitted effect of over 65% in size; also: potency is read from the fitted curve at half-maximal effect
In short: as §1

[11] = qHTS of pediatric cancer cell lines to identify multiple opportunities for drug repurposing: Confirmatory screen for DAOY cells (AID 1347114); also: nearly all actives have a fitted effect of over 65% in size
In short: (§2)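 Viability measured as metabolically active cells via CellTiter-Glo luminescence following 48 hours of compound exposure, 11-point dilutions in confirmatory testing. 500-1,000 cells/well plated 5 hours before dosing; controls were DMSO and 2.3 µM bortezomib.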

[12] = qHTS of pediatric cancer cell lines to identify multiple opportunities for drug repurposing: Confirmatory screen for SJ-GBM2 cells (AID 1347116); also: nearly all actives have a fitted effect of over 60% in size; also: potency is read from the fitted curve at half-maximal effect
In short: as §2

[13] = qHTS of pediatric cancer cell lines to identify multiple opportunities for drug repurposing: Confirmatory screen for MG 63 (6-TG R) cells (AID 1347119); also: nearly all actives have a fitted effect of over 55% in size; also: potency is read from the fitted curve at half-maximal effect
In short: as §1

[14] = qHTS of pediatric cancer cell lines to identify multiple opportunities for drug repurposing: Confirmatory screen for Rh41 cells (AID 1347123); also: nearly all actives have a fitted effect of over 60% in size; also: potency is read from the fitted curve at half-maximal effect
In short: as §1

[15] = qHTS of pediatric cancer cell lines to identify multiple opportunities for drug repurposing: Confirmatory screen for NB-EBc1 cells (AID 1347115);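 also: cells exposed to compound for 48 h before the viability read; nearly all actives have a fitted effect of over 45% in size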; also: potency is read from the fitted curve at half-maximal effect
In short: as §1

[16] = qHTS of pediatric cancer cell lines to identify multiple opportunities for drug repurposing: Confirmatory screen for control Hh wild type fibroblast cells (AID 1347121); also: nearly all actives have a fitted effect of over 70% in size; also: potency is read from the fitted curve at half-maximal effect
In short: as §1

[17] = qHTS of pediatric cancer cell lines to identify multiple opportunities for drug repurposing: Confirmatory screen for NB1643 cells (AID 1347109); conditions: NB1643 neuroblastoma cell viability; activity change, negative = cytotoxic: at 45.9 µM (top of the series); also: nearly all actives have a fitted effect of over 45% in size; also: potency is read from the fitted curve at half-maximal effect
In short: as §1

Measured: Potency

c1cnc2cc3c(cc2n1)C1CNCC3C1
inconclusive: [5] 1.3 nM [rising, full curve, poor fit] | [8] 5.9 nM [rising, full curve, poor fit]
inactive: [1] | [2] | [3] | [4] | [6] | [7]

O=C1c2c(O)cc(O)cc2OC(c2ccc(O)c(O)c2)C1O (stereo not given)
inactive: [3] | [9] | [10] | [11] | [12] | [5] | [13] | [14] | [8]

CC(COc1ccccc1)N(CCCl)Cc1ccccc1 (stereo not given)
inactive: [6]
inconclusive: [2] 18.5 µM [cytotoxic, partial curve, poor fit] | [9] 13.1 µM [cytotoxic, partial curve, poor fit] | [15] 20.8 µM [cytotoxic, partial curve, poor fit] | [12] 20.8 µM [cytotoxic, single point] | [13] 14.7 µM [cytotoxic, partial curve] | [16] 14.7 µM [cytotoxic, partial curve, poor fit] | [7] 23.3 µM [cytotoxic, single point]
active: [14] 13.1 µM

CO[C@H]1C[C@@H]2CC[C@@H](C)[C@@](O)(O2)C(=O)C(=O)N2CCCC[C@@H]2C(=O)O[C@H]([C@H](C)C[C@@H]2CC[C@H](OP(C)(C)=O)[C@H](OC)C2)CC(=O)[C@H](C)C=C(C)[C@@H](O)[C@@H](OC)C(=O)[C@H](C)C[C@H](C)C=CC=CC=C1C
inconclusive: [1] 4.69 µM [cytotoxic, partial curve] | [2] 26.1 µM [cytotoxic, partial curve, poor fit] | [9] 29.3 µM [cytotoxic, partial curve] | [10] 36.9 µM [cytotoxic, single point] | [15] 0.465 µM [cytotoxic, partial curve, poor fit] | [4] 73.7 nM [cytotoxic, partial curve] | [13] 0.0046 µM [cytotoxic, full curve] | [7] 5.22 µM [cytotoxic, partial curve]
active: [6] 14.7 µM

CC(C)(C#N)c1cc(Cn2cncn2)cc(C(C)(C)C#N)c1
inactive: [2] | [3] | [10] | [11] | [15] | [5] | [16]

CC1(C)C(=O)N(CCN2CCC(C(=O)c3ccc(F)cc3)CC2)c2ccccc21
inactive: [10] | [13] | [7] | [8]
inconclusive: [17] 8.27 µM [cytotoxic, full curve] | [2] 32.9 µM [cytotoxic, single point] | [9] 29.3 µM [cytotoxic, single point] | [15] 20.8 µM [cytotoxic, single point] | [12] 0.0026 µM [rising, full curve] | [6] 16.5 µM [cytotoxic, partial curve, poor fit] | [14] 7.37 µM [cytotoxic, partial curve, poor fit]

CCOc1cc(CC(=O)N[C@@H](CC(C)C)c2ccccc2N2CCCCC2)ccc1C(=O)O
inactive: [9] | [10] | [12] | [5] | [14]
inconclusive: [2] 13.1 µM [cytotoxic, partial curve, poor fit] | [3] 36.9 µM [cytotoxic, single point] | [15] 26.1 µM [cytotoxic, single point] | [13] 36.9 µM [cytotoxic, single point]

COc1ccccc1OCCNCC(O)COc1cccc2[nH]c3ccccc3c12 (stereo not given)
inconclusive: [1] 16.8 µM [cytotoxic, single point] and 20.9 µM [cytotoxic, partial curve, poor fit]

CC1(C)O[C@@H]2C[C@H]3[C@@H]4CCC5=CC(=O)C=C[C@]5(C)[C@@H]4[C@@H](O)C[C@]3(C)[C@]2(C(=O)CO)O1
inactive: [17] | [3] | [11] | [12] | [13] | [14] | [7]
